Measured values from the supplement of paper PMC10849652.
The other results are listed elsewhere or left out.

By UniProt entry, the sequences of proteins in these tests, tags left out. Where a name states a change or a piece, a line headed by the entry shows the natural chain unless it says otherwise.
UniProt Q13572: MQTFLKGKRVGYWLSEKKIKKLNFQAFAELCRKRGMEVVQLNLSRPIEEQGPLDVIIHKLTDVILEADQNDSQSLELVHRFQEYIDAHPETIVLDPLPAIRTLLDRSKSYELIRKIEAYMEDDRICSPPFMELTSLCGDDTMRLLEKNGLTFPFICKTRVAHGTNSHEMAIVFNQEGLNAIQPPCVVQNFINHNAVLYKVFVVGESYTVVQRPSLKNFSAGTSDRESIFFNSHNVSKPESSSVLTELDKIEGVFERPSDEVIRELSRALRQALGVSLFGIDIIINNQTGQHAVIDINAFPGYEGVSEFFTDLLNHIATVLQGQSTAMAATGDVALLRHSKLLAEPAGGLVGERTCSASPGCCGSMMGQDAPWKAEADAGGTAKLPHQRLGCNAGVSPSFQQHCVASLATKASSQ
UniProt O95279: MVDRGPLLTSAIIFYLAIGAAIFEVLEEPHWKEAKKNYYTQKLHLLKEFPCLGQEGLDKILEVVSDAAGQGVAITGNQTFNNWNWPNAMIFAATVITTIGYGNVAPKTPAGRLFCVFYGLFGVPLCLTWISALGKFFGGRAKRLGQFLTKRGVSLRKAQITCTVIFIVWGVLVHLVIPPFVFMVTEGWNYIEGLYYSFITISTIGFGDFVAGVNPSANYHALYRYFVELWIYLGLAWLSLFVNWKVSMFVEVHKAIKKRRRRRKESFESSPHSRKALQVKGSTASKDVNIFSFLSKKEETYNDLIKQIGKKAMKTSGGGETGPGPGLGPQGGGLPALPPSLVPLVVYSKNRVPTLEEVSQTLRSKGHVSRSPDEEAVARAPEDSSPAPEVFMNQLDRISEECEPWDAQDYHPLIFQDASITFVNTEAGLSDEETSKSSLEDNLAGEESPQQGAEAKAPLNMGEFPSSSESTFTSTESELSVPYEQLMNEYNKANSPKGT
UniProt Q9H079: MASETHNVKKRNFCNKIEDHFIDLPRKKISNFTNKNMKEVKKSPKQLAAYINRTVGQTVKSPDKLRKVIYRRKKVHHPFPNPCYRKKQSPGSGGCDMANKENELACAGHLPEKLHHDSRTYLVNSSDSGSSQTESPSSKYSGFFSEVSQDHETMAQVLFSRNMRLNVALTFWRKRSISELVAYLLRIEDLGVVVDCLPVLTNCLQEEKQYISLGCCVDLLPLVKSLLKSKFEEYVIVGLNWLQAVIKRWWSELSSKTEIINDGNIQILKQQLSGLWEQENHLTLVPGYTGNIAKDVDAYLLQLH
UniProt O14713: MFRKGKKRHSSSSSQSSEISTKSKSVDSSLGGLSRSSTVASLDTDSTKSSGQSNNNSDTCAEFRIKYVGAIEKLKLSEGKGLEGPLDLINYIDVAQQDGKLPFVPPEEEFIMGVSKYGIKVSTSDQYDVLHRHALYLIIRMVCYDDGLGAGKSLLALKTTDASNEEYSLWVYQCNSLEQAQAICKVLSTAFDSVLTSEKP
UniProt P23677, whole entry, looked up: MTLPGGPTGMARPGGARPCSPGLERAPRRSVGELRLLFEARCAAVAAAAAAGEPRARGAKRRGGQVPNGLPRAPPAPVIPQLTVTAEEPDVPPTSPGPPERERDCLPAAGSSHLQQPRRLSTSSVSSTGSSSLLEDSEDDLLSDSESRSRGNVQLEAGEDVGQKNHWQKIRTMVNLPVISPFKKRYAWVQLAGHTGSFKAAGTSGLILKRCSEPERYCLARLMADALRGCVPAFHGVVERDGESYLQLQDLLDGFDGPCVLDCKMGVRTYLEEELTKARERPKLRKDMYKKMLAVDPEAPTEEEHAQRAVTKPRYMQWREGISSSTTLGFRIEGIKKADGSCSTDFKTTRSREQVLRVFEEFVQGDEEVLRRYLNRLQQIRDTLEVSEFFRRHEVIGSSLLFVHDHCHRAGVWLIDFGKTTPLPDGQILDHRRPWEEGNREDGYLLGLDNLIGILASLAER
UniProt O76095: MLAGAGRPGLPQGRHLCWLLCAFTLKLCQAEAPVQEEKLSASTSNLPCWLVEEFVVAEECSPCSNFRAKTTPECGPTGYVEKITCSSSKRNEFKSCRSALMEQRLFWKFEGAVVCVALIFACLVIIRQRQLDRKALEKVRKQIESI
UniProt Q8WYB5, whole entry, looked up: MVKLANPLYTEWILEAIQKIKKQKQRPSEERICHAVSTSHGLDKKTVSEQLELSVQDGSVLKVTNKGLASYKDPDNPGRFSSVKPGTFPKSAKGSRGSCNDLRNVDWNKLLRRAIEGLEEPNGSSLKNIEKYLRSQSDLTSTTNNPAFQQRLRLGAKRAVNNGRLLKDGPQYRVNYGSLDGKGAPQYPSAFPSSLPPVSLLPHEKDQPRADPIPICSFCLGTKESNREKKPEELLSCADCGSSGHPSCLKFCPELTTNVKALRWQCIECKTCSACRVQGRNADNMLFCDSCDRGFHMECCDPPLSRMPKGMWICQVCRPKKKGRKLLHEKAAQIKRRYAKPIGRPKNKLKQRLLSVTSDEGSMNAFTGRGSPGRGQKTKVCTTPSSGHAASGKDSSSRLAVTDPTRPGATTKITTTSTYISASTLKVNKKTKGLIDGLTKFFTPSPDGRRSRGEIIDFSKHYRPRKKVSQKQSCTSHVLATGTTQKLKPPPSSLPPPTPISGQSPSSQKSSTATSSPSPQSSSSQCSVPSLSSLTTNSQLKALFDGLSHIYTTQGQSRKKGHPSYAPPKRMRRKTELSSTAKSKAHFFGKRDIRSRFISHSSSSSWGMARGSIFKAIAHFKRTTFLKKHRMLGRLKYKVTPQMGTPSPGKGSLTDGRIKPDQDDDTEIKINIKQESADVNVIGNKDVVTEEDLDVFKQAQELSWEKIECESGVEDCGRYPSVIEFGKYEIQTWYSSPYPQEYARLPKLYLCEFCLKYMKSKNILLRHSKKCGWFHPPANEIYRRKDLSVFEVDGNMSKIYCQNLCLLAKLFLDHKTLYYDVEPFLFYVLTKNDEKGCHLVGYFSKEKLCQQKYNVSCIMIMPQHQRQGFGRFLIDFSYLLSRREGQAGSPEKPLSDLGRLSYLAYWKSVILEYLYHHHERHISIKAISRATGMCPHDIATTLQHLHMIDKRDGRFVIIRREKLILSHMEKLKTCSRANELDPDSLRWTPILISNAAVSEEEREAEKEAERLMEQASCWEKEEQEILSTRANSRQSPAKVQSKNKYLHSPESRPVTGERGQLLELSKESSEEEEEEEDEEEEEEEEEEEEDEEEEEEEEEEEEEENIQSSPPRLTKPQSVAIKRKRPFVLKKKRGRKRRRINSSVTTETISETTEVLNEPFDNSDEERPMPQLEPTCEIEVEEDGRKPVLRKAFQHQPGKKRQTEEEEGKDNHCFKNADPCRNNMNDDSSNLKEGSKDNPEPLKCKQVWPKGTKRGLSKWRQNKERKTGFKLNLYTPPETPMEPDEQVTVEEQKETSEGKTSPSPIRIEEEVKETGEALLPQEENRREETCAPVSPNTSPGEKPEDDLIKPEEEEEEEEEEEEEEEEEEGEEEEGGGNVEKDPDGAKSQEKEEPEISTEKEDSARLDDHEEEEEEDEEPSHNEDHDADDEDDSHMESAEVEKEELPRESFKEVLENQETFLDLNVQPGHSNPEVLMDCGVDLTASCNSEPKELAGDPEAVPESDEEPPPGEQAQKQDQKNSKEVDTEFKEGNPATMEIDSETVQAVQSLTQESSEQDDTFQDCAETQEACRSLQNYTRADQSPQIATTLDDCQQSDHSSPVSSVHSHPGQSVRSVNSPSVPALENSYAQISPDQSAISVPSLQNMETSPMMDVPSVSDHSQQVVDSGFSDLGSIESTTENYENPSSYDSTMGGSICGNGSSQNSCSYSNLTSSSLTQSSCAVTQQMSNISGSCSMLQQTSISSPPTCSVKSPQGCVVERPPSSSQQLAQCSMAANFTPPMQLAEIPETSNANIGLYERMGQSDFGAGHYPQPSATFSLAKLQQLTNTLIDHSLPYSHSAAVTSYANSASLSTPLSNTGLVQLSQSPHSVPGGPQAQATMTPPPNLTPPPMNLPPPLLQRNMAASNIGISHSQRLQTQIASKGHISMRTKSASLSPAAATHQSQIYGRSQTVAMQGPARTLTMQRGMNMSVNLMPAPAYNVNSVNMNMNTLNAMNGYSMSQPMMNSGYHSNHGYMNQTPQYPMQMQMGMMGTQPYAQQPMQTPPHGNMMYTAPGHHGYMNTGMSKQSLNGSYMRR
UniProt O15554, whole entry, looked up: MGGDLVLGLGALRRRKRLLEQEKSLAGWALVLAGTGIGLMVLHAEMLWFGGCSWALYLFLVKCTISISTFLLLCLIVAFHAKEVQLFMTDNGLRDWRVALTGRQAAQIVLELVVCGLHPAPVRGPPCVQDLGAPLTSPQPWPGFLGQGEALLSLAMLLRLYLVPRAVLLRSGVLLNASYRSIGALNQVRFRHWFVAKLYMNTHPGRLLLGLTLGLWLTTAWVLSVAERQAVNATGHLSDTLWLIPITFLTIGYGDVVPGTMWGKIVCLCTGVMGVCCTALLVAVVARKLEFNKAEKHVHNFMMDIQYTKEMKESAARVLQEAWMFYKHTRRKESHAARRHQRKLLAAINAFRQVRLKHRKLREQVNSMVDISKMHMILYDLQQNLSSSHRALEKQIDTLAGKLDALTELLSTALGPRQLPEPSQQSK

Key:
Experiment in all cases: log2 fold change, soluble protein after heating vs DMSO (PISA); higher = thermal stabilisation; K562 lysate, 10 uM; active = over 0.2 and 3.5 SD of the protein, either way, in both replicates (recomputed)
lapatinib = compound: CS(=O)(=O)CCNCc1ccc(-c2ccc3ncnc(Nc4ccc(OCc5cccc(F)c5)c(Cl)c4)c3c2)o1 [lapatinib]
How it was run: (§1)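 Quantification was by TMTpro 16plex LC-MS/MS with equalised channel sums, applied to the supernatant after 21,000xg for 90 min. Samples were crude K562 extract at 1 mg/mL protein in PBS pH 7.4 with 1 mM MgCl2, treated with 10 μM compound for 30 min, heated for 3 min across 48°C-58°C, pooled and brought to 0.5% NP-40 at 4°C. Values are log-two fold changes in thermal stability relative to solvent controls, from duplicates.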

pictilisib = compound: CS(=O)(=O)N1CCN(Cc2cc3nc(-c4cccc5[nH]ncc45)nc(N4CCOCC4)c3s2)CC1 [pictilisib]
How it was run: as §1

crizotinib = compound: C[C@@H](Oc1cc(-c2cnn(C3CCNCC3)c2)cnc1N)c1c(Cl)ccc(F)c1Cl [crizotinib]
How it was run: as §1

[1] = compound: C[C@H](C1=CC=C(C=C1)C(=O)NC2=C3C=CNC3=NC=C2)N
How it was run: as §1

duvelisib = compound: C[C@H](Nc1ncnc2nc[nH]c12)c1cc2cccc(Cl)c2c(=O)n1-c1ccccc1 [duvelisib]
How it was run: as §1

gandotinib = compound: Cc1cc(Nc2cc(CN3CCOCC3)c3nc(C)c(Cc4ccc(Cl)cc4F)n3n2)n[nH]1 [gandotinib]
How it was run: as §1

tozasertib = compound: Cc1cc(Nc2cc(N3CCN(C)CC3)nc(Sc3ccc(NC(=O)C4CC4)cc3)n2)n[nH]1 [tozasertib]
How it was run: as §1

doramapimod = compound: Cc1ccc(-n2nc(C(C)(C)C)cc2NC(=O)Nc2ccc(OCCN3CCOCC3)c3ccccc23)cc1 [doramapimod]
How it was run: as §1

bafetinib = compound: Cc1ccc(NC(=O)c2ccc(CN3CC[C@H](N(C)C)C3)c(C(F)(F)F)c2)cc1Nc1nccc(-c2cncnc2)n1 [bafetinib]
How it was run: as §1

[2] = compound: Cc1cccc(CC(=O)N2CCc3c2ccc(-c2cn(C)c4ncnc(N)c24)c3F)n1
How it was run: as §1

nilotinib = compound: Cc1cn(-c2cc(NC(=O)c3ccc(C)c(Nc4nccc(-c5cccnc5)n4)c3)cc(C(F)(F)F)c2)cn1 [nilotinib]
How it was run: as §1

[3] = compound: Cc1nc(Nc2n[nH]c3c2CN(C(=O)N[C@H](CN(C)C)c2ccccc2)C3(C)C)c2sccc2n1
How it was run: as §1

dasatinib = compound: Cc1nc(Nc2ncc(C(=O)Nc3c(C)cccc3Cl)s2)cc(N2CCN(CCO)CC2)n1 [dasatinib]
How it was run: as §1

[4] = compound: Cc1ncc(-c2ccnc(Nc3ccc(S(C)(=O)=O)cc3)n2)n1C(C)C
How it was run: as §1

[5] = compound: Cn1cc(-c2ccc3c(c2)CCN3C(=O)Cc2cccc(C(F)(F)F)c2)c2c(N)ncnc21
How it was run: as §1

quisinostat = compound: Cn1cc(CNCC2CCN(c3ncc(C(=O)NO)cn3)CC2)c2ccccc21 [quisinostat]
How it was run: as §1

tipifarnib = compound: Cn1cncc1[C@@](N)(c1ccc(Cl)cc1)c1ccc2c(c1)c(-c1cccc(Cl)c1)cc(=O)n2C [tipifarnib]
How it was run: as §1

[6] = compound: NC(=O)Nc1cc(-c2cccc(F)c2)sc1C(=O)N[C@H]1CCCNC1
How it was run: as §1

[7] = compound: NC(=O)c1cnc(N[C@@H]2CCCC[C@@H]2N)nc1Nc1cccc(-n2nccn2)c1
How it was run: as §1

[8] = compound: NC1(c2ccc(-c3nc4ccn5c(=O)[nH]nc5c4cc3-c3ccccc3)cc2)CCC1
How it was run: as §1

Measured: log2 fold change

ITPK1 (UniProt Q13572)
inactive: lapatinib 0.049 | pictilisib -0.046 | crizotinib -0.025 | [1] 0.069 | duvelisib 0.035 | gandotinib -0.023 | tozasertib 0.03 | doramapimod 0.057 | bafetinib -0.05 | [2] 0.045 | nilotinib -0.015 | [3] 0.067 | dasatinib 0.047 | [4] 0.035 | [5] 0.018 | quisinostat -0.051 | tipifarnib -0.063 | [6] 0.056 | [7] -0.012 | [8] 0.04

KCNK5 (UniProt O95279)
inactive: lapatinib -0.286 | pictilisib -0.078 | crizotinib 0.089 | [1] -0.214 | duvelisib -0.55 | gandotinib -0.148 | doramapimod 0.087 | bafetinib -0.025 | [2] 0.091 | nilotinib 0.113 | [3] -0.858 | dasatinib 0.121 | [4] -0.143 | [5] 0.029 | quisinostat 0.047 | tipifarnib 0.214 | [6] 0.141 | [7] -0.032 | [8] -0.024

KATNBL1 (UniProt Q9H079)
inactive: lapatinib -0.013 | crizotinib -0.066 | [1] 0.05 | duvelisib 0.164 | gandotinib -0.021 | tozasertib 0.169 | doramapimod -0.069 | [2] 0.01 | nilotinib -0.057 | [3] -0.143 | dasatinib 0.068 | [4] -0.159 | [5] -0.073 | quisinostat 0.035 | tipifarnib 0.198 | [6] 0.158 | [7] 0.017 | [8] 0.023

ITGB1BP1 (UniProt O14713)
inactive: lapatinib 0.024 | pictilisib 0.085 | [1] 0.023 | duvelisib 0.089 | gandotinib 0.004 | tozasertib 0.107 | bafetinib 0.155 | [2] -0.028 | nilotinib -0.013 | [3] 0.104 | dasatinib -0.036 | [4] 0.002 | [5] 0.072 | tipifarnib 0.038 | [7] -0.069 | [8] -0.123

ITPKA (UniProt P23677)
inactive: lapatinib -0.043 | pictilisib -0.055 | crizotinib -0.012 | [1] -0.012 | duvelisib -0.038 | gandotinib -0.012 | tozasertib 0.051 | doramapimod 0.016 | bafetinib -0.043 | [2] 0.051 | nilotinib -0.005 | [3] 0.045 | dasatinib -0.064 | [4] -0.001 | [5] -0.002 | quisinostat -0.026 | tipifarnib -0.001 | [6] 0.044 | [7] 0.021 | [8] -0.027

JTB (UniProt O76095)
inactive: lapatinib 0.01 | pictilisib 0.089 | crizotinib 0.038 | duvelisib -0.057 | tozasertib 0.002 | doramapimod 0.016 | bafetinib -0.098 | nilotinib -0.121 | [3] 0.004 | dasatinib -0.052 | [4] 0.062 | [5] 0.046 | quisinostat -0.114 | tipifarnib -0.117 | [6] 0.01 | [7] 0.062 | [8] -0.027

KAT6B (UniProt Q8WYB5)
inactive: lapatinib 0.056 | pictilisib -0.076 | crizotinib -0.226 | [1] -0.135 | duvelisib 0.097 | gandotinib 0.003 | tozasertib -0.045 | doramapimod 0.054 | bafetinib -0.164 | [2] 0.158 | dasatinib -0.12 | [5] -0.006 | quisinostat -0.244 | [6] -0.003 | [7] 0.009 | [8] -0.069

KCNN4 (UniProt O15554)
inactive: lapatinib 0.106 | crizotinib 0.077 | [1] 0.167 | gandotinib 0.04 | doramapimod -0.015 | [2] -0.261 | nilotinib -0.172 | [3] -0.029 | [4] 0.19 | quisinostat 0.047 | tipifarnib 0.197 | [6] 0.081 | [7] -0.014 | [8] 0.103
